This passage reports binding results from publication PMC3867403.

These are yes or no findings as the source states them, for the method shown. In cells and extracts the contact can be indirect. For some of these results: A result given as binding can be weak or reduced; the word gives no strength. Sequences can lack the tags named with a protein.

Test [1] deals with T1, ALK5-Flag (transforming growth factor-β receptor 1, TGFBR1) (UniProt P36897).
T1 sequence: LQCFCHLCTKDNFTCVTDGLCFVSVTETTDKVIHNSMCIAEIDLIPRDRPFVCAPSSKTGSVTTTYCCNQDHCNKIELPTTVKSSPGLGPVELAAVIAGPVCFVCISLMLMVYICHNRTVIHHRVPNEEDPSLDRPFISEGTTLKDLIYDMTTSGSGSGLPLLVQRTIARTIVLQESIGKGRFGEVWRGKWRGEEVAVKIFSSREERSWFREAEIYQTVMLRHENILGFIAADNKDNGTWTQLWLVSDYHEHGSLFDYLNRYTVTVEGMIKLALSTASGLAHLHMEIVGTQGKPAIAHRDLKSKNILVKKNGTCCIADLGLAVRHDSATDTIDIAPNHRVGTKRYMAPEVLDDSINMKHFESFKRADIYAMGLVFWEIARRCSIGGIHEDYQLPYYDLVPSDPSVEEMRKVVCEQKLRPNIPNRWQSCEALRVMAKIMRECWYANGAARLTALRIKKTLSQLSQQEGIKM
Briefly: co-IP; lysate (0.3% CHAPS in PBS with Ca/Mg) of HEK293 cells transfected with ALK5-Flag incubated with recombinant GST or GST-LumC50 at 4°C for 1 h with 0.5 mg/ml DSP; anti-flag Sepharose beads, eluted with flag peptide; blots with anti-flag and anti-GST; only the binder purified.

The target of test [2] is GST-Lum (recombinant GST-lumican fusion protein) (mouse). Briefly: pull-down; intact HEK293 cells transfected with ALK5-Flag incubated with GST-Lum or GST (10 µg/ml) at 4°C for 1 h, then 0.5 mg/ml DSP cross-linker for 1 h; lysate applied to a glutathione-Sepharose column, eluted with 20 mM glutathione; Western blot with 1% MeSH; only the target purified. In general terms: In western blotting, separated proteins are transferred to a membrane and probed.

The target in test [3] is LumN288-c-myc (N-terminal Lum, C-terminal deletion). Description: co-IP; HEK293 cells co-transfected with ALK5-flag and Lum-myc, LumN288-myc or LumC50-myc; 0.5 mg/ml DSP on ice for 45 min; lysis in 50 mM Tris/HCl pH 7.4, 150 mM NaCl, 1% Triton X100; anti-c-myc Sepharose beads, eluted with c-myc peptide; blots with anti-flag and anti-c-myc.
In test [4] the target is LumC50-c-myc (C-terminal Lum, N-terminal deletion). Described as above.

Turning to “GST-LumC50 (GST fusion with the C-terminal 50 amino acids of Lum) (mouse) (domain or fragment)”, the binding result in test [1] was “binds”.

B1: ALK5-Flag (transforming growth factor-β receptor 1, TGFBR1) (receptor, UniProt P36897 34-503)
chain: T1 sequence
Take B1: the binding result was “binds” in test [2], “no binding” in test [3] and “binds” in test [4].
